{"sequences": {"note": "By UniProt entry, the sequences of proteins in these tests, tags left out.", "UniProt P11836": "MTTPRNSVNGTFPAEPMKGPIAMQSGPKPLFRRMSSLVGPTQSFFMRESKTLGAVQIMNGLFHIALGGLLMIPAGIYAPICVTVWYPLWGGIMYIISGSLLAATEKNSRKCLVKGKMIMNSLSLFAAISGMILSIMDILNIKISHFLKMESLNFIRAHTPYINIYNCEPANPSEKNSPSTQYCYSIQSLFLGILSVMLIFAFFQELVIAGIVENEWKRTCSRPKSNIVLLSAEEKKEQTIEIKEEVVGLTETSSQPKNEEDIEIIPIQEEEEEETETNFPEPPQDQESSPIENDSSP"}, "source": "patent EP2500357A2", "binders": {"B1": {"name": "murine anti-human-CD20 mAb clone 5F1 (antibody, V domains shown)", "VH": "QVQLRQPGAELVKPGASVKMSCKASGYTFTSYNMHWVKQTPGQGLEWIGAIYPGNGDTSYNQKFKGKATLTADKSSSTAYMQLSSLTSEDSAVYYCARSHYGSNYVDYFDYWGQGTTLTVSS", "VL": "QIVLSQSPAILSASPGEKVTMTCRASSSLSFMHWYQQKPGSSPKPWIYATSNLASGVPARFSGSGSGTSYSLTISRVEAEDAATYFCHQWSSNPLTFGAGTKLELKR"}}, "molecular_target": "human CD20 on Raji B cells (human) (UniProt P11836)", "test": "flow cytometry staining of Raji B cells", "note": "Results are given in words; binding and its absence hold for the method and conditions named. Some results given as binding are weak or reduced against the parent protein; the word gives no strength.", "data": [{"binder": "B1", "values": [{"measurement": "binding", "value": "binds"}]}]}
